Experimental data as given in patent publication US20240207458A1, “TARGETED ALPHA PARTICLE THERAPY FOR SOMATOSTATIN RECEPTOR 2 POSITIVE NEUROENDOCRINE TUMORS AND METASTASES” (H. LEE MOFFITT CANCER CENTER AND RESEARCH INSTITUTE, INC., priority 2021, published 2024).
For some assays here: At least one peptide structure holds a part that was inferred or is arguable (an end, a ring closure or a residue). For some assays here: At least one compound was matched to its structure with a doubt left. Bridge positions count the residues as written; N and C are the ends. Square brackets hold non-standard residues; d marks the D form. Peptide text beside a SMILES is read from it. * marks the point of attachment. DOTA = O=C(O)CN1CCN(CC(=O)O)CCN(CC(=O)*)CCN(CC(=O)O)CC1

Sequences of proteins named here, by UniProt entry; tags and fusion partners are left off. A change or cut given only in a name is not applied to a line headed by its entry.
UniProt P30874: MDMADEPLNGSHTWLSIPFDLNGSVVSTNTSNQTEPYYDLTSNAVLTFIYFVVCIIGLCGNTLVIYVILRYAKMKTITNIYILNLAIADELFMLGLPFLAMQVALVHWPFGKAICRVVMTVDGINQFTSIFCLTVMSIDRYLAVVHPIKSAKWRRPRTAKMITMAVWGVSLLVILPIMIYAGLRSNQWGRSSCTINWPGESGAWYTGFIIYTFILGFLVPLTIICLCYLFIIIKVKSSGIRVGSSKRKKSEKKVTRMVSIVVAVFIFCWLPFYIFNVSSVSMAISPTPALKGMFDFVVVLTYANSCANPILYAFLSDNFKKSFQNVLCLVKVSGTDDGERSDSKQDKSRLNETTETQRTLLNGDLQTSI

How the values were obtained:
SSTR2 receptor = target: T1, SSTR2 receptor (Homo sapiens, UniProt P30874); assay: whole-cell competition binding assay with Eu-DOTATATE as competing ligand (Hek293/SSTR2 cells); conditions: La3+ chelate as test agent, Eu3+ chelate of DOTATATE as competing ligand, read-out: Ki (nM) of La^3+ chelate
T1 construct: expressed in transfected cells; host or cells: Hek293/SSTR2 cells
Protocol: Competition curves were analyzed with GraphPad Prism software using the sigmoidal dose-response (variable slope) classical equation for nonlinear regression analysis.

[1] = system: human SSTR2 positive H69 lung NENs; assay: efficacy, single intravenous injection, H69 tumor model; type: in vivo, SCID mice; conditions: single administration
[2] = system: human SSTR2 positive H727 lung NENs; assay: efficacy, single intravenous injection, H727 tumor model; type: in vivo, SCID mice; conditions: single administration
[3] = system: neuroendocrine tumors that express the somatostatin receptor 2 (SSTR2); conditions: patients refractory to [177Lu]Lu-DOTA-TATE; cited from earlier work

Q: Which Ki (SSTR2 receptor) does the source give for C[C@@H](O)[C@H](NC(=O)[C@@H]1CSSC[C@H](NC(=O)[C@@H](Cc2ccccc2)NC(=O)[C@@H](CCC(=O)O)NC(=O)[C@@H](CCCCN)NC(=O)CN2CCN(CC(=O)O)CCN(CC(=O)O)CCN(CC(=O)O)CC2)C(=O)N[C@@H](Cc2ccc(O)cc2)C(=O)N[C@H](Cc2c[nH]c3ccccc23)C(=O)N[C@@H](CCCCN)C(=O)N[C@@H]([C@@H](C)O)C(=O)N1)C(=O)O [Compound 11, La-DOTA-D-Lys-D-Glu-TATE] ({DOTA}-[dK][dE][dF]CY[dW]KTCT-OH; disulfide 4-9) here?
A: 46.9 ± 34.5 nM

Q: With C[C@@H](O)[C@H](NC(=O)[C@@H]1CSSC[C@H](NC(=O)[C@@H](Cc2ccccc2)NC(=O)[C@@H](CCCCN)NC(=O)[C@@H](CCCCN)NC(=O)CN2CCN(CC(=O)O)CCN(CC(=O)O)CCN(CC(=O)O)CC2)C(=O)N[C@@H](Cc2ccc(O)cc2)C(=O)N[C@H](Cc2c[nH]c3ccccc23)C(=O)N[C@@H](CCCCN)C(=O)N[C@@H]([C@@H](C)O)C(=O)N1)C(=O)O [Compound 10, La-DOTA-D-Lys-D-Lys-TATE] as the compound, how does the Ki (SSTR2 receptor) read?
A: 3.8 ± 2.8 nM

Q: What does the source list for C[C@@H](O)[C@H](NC(=O)[C@@H]1CSSC[C@H](NC(=O)[C@@H](Cc2ccccc2)NC(=O)CN2CCN(CC(=O)O)CCN(CC(=O)O)CCN(CC(=O)O)CC2)C(=O)N[C@@H](Cc2ccc(O)cc2)C(=O)N[C@H](Cc2c[nH]c3ccccc23)C(=O)N[C@@H](CCCCN)C(=O)N[C@@H]([C@@H](C)O)C(=O)N1)C(=O)O [^225Ac-DOTATATE, metal not drawn]?
A: tumor growth delay and time-to-experimental endpoint relative to controls [1]: significant tumor growth delay and time-to-experimental endpoint; tumor growth delay and time-to-experimental endpoint relative to controls [2]: significant tumor growth delay and time-to-experimental endpoint; clinical efficacy [3]: demonstrated efficacy
